The text below walks through data of patent publication US20070015228A1.

The target of assay [1] is anti-idiotypic antibody 8A3. Kind of assay: sandwich ELISA, 8C5 coat, biotinylated 8A3 and streptavidin-HRP detection; the signal needs binding to both 8C5 and 8A3.
The target in assay [2] is chimeric 2H7 anti-CD20 antibody. Kind of assay: blocking of chimeric 2H7 binding to WIL2 cells.
Assay [3] deals with parent mouse anti-CD20 antibody (murine 2H7). Kind of assay: sandwich ELISA, 8C5 coat, biotinylated 8A3 detection. Background: In an ELISA, binding on a coated surface is turned into a signal by an enzyme label.
For assay [4], the target named is mouse anti-CD20 IgG that had the same variable domain as the parent mouse anti-CD20 antibody. The assay is described as follows: sandwich ELISA, 8A3 coat, biotinylated 8A3 detection.
The target of assay [5] is humanized 2H7 variant v114. The assay is described as follows: sandwich ELISA, 8C5 coat, biotinylated 8A3 detection, mouse serum.
The target in assay [6] is v16 as 'mouse 2H7 variant' (Example 4, FIG. 16). The description is as above.
Assay [7] has as its target mouse anti-CD20 IgG that had the same variable domain as the parent mouse anti-CD20 antibody. Kind of assay: ELISA, 8A3 Fab coat, anti-mouse IgG Fc-HRP detection.
Assay [8] concerns the target anti-idiotypic antibody 8A3. The assay is described as follows: sandwich ELISA in mouse serum, 8C5 coat + 2H7 + 8A3-bio; the signal needs binding to both 8C5 and 8A3.

Results are given in words; binding and its absence hold for the method and conditions named. Some binding calls cover weakened binding; strength is not graded here.

B1: parent mouse anti-CD20 antibody (murine 2H7) (antibody, V domains shown)
VH: QAYLQQSGAELVRPGASVKMSCKASGYTFTSYNMHWVKQTPRQGLEWIGAIYPGNGDTSYNQKFKGKATLTVDKSSSTAYMQLSSLTSEDSAVYFCARVVYYSNSYWYFDVWGTGTTVTVSS
VL: QIVLSQSPAILSASPGEKVTMTCRASSSVSYMHWYQQKPGSSPKPWIYAPSNLASGVPARFSGSGSGTSYSLTISRVEAEDAATYYCQQWSFNPPTFGAGTKLELKR
Turning to B1, in assay [1], the binding entry is reported as “binds”.

B2: anti-idiotypic antibody 8A3 (antibody, V domains shown)
VH: QVQLQQSGAELAKPGASVKMSCKASGYNFTTYWMHWVKQRPGQGLEWIGYINPSTDYTEYNQKFKYKATLTADKSSSTAYIQLSSLTSEDSAVYYCARWWDYDWYFDVWGAGTPLTVSS
VL: DIVMTQSQEFMSTSVGDRVSVTCKASQTVDTNVAWYQQKLGQSPKPLIYSASYRCSGVPDRFTGSGSRTDFTLTITNVQSEDLAEYFCQQYHSFPWTFGGGTKVEIKR
Regarding B2, the binding result in assay [2], in assay [3], in assay [4], in assay [5] and in assay [6] was “binds” in each case.

B3: 8A3 Fab (Fab, V domains shown)
VH: QVQLQQSGAELAKPGASVKMSCKASGYNFTTYWMHWVKQRPGQGLEWIGYINPSTDYTEYNQKFKYKATLTADKSSSTAYIQLSSLTSEDSAVYYCARWWDYDWYFDVWGAGTPLTVSS
VL: DIVMTQSQEFMSTSVGDRVSVTCKASQTVDTNVAWYQQKLGQSPKPLIYSASYRCSGVPDRFTGSGSRTDFTLTITNVQSEDLAEYFCQQYHSFPWTFGGGTKVEIKR
B3: the binding entry in assay [7] is given as “binds”.

B4: v16 as 'mouse 2H7 variant' (Example 4, FIG. 16) (antibody, V domains shown)
VH: DIQMTQSPSSLSASVGDRVTITCRASSSVSYMHWYQQKPGKAPKPLIYAPSNLASGVPSRFSGSGSGTDFTLTISSLQPEDFATYYCQQWSFNPPTFGQGTKVEIKR
VL: EVQLVESGGGLVQPGGSLRLSCAASGYTFTSYNMHWVRQAPGKGLEWVGAIYPGNGDTSYNQKFKGRFTISVDKSKNTLYLQMNSLRAEDTAVYYCARVVYYSNSYWYFDVWGQGTLVTVSS
As to B4, the binding entry in assay [8] is given as “binds”.

B5: humanized 2H7 variant v114 (antibody, human IgG1, kappa, V domains shown)
VH: EVQLVESGGGLVQPGGSLRLSCAASGYTFTSYNMHWVRQAPGKGLEWVGAIYPGNGATSYNQKFKGRFTISVDKSKNTLYLQMNSLRAEDTAVYYCARVVYYSASYWYFDVWGQGTLVTVSS
VL: DIQMTQSPSSLSASVGDRVTITCRASSSVSYLHWYQQKPGKAPKPLIYAPSNLASGVPSRFSGSGSGTDFTLTISSLQPEDFATYYCQQWAFNPPTFGQGTKVEIKR
As to B5, in assay [8], the binding result is on record as “binds”.
